Assay results reported in doi:10.1101/2025.03.01.640934.
Results are given in words; binding and its absence hold for the method and conditions named. In cells and extracts the contact can be indirect. Here binding means that the protein was enriched with, or labelled near, the bait; the list need not be complete.

Sequences of proteins named here, by UniProt entry; tags and fusion partners are left off.
UniProt Q6NUN9: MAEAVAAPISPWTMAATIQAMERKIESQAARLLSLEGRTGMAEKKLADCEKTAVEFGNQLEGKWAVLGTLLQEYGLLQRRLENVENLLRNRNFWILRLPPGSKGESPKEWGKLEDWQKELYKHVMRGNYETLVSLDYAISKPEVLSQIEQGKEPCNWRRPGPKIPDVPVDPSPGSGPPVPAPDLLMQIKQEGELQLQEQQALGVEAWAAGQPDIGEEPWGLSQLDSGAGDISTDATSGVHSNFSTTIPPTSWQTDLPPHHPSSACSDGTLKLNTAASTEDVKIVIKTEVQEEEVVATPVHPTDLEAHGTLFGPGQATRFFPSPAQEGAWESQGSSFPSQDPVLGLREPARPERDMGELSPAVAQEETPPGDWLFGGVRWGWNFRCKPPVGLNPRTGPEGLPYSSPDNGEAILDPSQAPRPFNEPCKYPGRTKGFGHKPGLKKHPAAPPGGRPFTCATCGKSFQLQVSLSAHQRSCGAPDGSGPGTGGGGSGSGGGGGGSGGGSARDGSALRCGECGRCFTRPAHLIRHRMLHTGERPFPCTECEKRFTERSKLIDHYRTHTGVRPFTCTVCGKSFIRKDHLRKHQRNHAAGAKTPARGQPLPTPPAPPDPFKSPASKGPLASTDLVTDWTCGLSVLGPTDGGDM

Target: full-length ZNF746 fused to TurboID (human) (UniProt Q6NUN9)
Experiment: proximity labelling

binding: binds
B1: RNA helicase UPF1 (protein, UniProt Q92900 1-1129)
chain: MSVEAYGPSSQTLTFLDTEEAELLGADTQGSEFEFTDFTLPSQTQTPPGGPGGPGGGGAGGPGGAGAGAAAGQLDAQVGPEGILQNGAVDDSVAKTSQLLAELNFEEDEEDTYYTKDLPIHACSYCGIHDPACVVYCNTSKKWFCNGRGNTSGSHIVNHLVRAKCKEVTLHKDGPLGETVLECYNCGCRNVFLLGFIPAKADSVVVLLCRQPCASQSSLKDINWDSSQWQPLIQDRCFLSWLVKIPSEQEQLRARQITAQQINKLEELWKENPSATLEDLEKPGVDEEPQHVLLRYEDAYQYQNIFGPLVKLEADYDKKLKESQTQDNITVRWDLGLNKKRIAYFTLPKTDSGNEDLVIIWLRDMRLMQGDEICLRYKGDLAPLWKGIGHVIKVPDNYGDEIAIELRSSVGAPVEVTHNFQVDFVWKSTSFDRMQSALKTFAVDETSVSGYIYHKLLGHEVEDVIIKCQLPKRFTAQGLPDLNHSQVYAVKTVLQRPLSLIQGPPGTGKTVTSATIVYHLARQGNGPVLVCAPSNIAVDQLTEKIHQTGLKVVRLCAKSREAIDSPVSFLALHNQIRNMDSMPELQKLQQLKDETGELSSADEKRYRALKRTAERELLMNADVICCTCVGAGDPRLAKMQFRSILIDESTQATEPECMVPVVLGAKQLILVGDHCQLGPVVMCKKAAKAGLSQSLFERLVVLGIRPIRLQVQYRMHPALSAFPSNIFYEGSLQNGVTAADRVKKGFDFQWPQPDKPMFFYVTQGQEEIASSGTSYLNRTEAANVEKITTKLLKAGAKPDQIGIITPYEGQRSYLVQYMQFSGSLHTKLYQEVEIASVDAFQGREKDFIILSCVRANEHQGIGFLNDPRRLNVALTRARYGVIIVGNPKALSKQPLWNHLLNYYKEQKVLVEGPLNNLRESLMQFSKPRKLVNTINPGARFMTTAMYDAREAIIPGSVYDRSSQGRPSSMYFQTHDQIGMISAGPSHVAAMNIPIPFNLVMPPMPPPGYFGQANGPAAGRGTPKGKTGRGGRQKNRFGLPGPSQTNLPNSQASQDVASQPFSQGALTQGYISMSQPSQMSQPGLSQPELSQDSYLGDEFKSQIDVALSQDSTYQGERAYQHGGVTGLSQY
